In paper PMC12752613:
These are yes or no findings as the source states them, for the method shown. In cells and extracts the contact can be indirect. Some entries that bind do so weakly or less than the wild type.

Sequences of proteins named here, by UniProt entry; tags and fusion partners are left off. A change or cut given only in a name is not applied to a line headed by its entry.
UniProt P05556: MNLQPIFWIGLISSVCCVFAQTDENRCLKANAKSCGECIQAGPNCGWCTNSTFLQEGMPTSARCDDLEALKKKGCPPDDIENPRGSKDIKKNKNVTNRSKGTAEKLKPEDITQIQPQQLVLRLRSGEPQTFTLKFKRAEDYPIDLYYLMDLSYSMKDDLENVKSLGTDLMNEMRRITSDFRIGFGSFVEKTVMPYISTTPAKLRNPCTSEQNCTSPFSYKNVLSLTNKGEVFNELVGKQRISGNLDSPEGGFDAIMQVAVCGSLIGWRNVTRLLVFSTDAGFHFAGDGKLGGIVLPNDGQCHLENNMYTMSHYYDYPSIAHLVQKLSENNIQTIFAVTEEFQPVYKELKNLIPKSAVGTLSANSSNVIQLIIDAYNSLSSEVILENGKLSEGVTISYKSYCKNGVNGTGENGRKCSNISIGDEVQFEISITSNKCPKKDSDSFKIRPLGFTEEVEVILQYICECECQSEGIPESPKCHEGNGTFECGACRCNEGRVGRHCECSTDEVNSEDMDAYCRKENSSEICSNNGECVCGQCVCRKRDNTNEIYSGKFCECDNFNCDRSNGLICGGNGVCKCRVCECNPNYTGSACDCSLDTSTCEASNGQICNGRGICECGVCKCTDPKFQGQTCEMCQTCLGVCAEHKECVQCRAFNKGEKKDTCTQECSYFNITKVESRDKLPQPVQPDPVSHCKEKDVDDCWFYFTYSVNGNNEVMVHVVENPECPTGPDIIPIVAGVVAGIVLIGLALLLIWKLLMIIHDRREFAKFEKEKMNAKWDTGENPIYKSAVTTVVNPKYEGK

Target: T1, MUC15 (human (endogenous in Panc-1 and MiaPaca-2)) (UniProt Q8N387)
T1 sequence: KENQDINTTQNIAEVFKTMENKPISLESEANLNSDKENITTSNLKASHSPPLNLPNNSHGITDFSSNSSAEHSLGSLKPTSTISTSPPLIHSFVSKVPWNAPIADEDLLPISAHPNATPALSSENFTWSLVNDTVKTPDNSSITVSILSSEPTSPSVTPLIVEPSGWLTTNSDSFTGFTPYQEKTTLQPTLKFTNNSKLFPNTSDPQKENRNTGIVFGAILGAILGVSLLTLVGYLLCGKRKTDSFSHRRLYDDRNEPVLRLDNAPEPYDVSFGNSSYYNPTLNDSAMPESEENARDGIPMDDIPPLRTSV
Test: co-IP; Panc-1 and MiaPaca-2 cell lysates (150 mM NaCl, 10 mM Tris-HCl pH 7.4, 1 mM EDTA, 1 mM EGTA, 1% Triton X-100, 0.5% NP-40); overnight with 2 µg anti-MUC15 or integrin β1 antibody at 4 °C, Protein A/G agarose, SDS-PAGE

Question: “integrin β1 (from UniProt P05556 21-798) (receptor)” was tested. Which binding did it give?
Answer: The binding was “binds”.
